PubChem BioAssay AID1259405, NCATS – 2018
Shown is one part, drawn at random, of about 50,000 reagents tested. Of all reagents, about 4,000 (8%) are marked active. 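Mouse siRNA library applied to hamster cells; one well for each siRNA.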 Reagents against one gene are numbered here.

- Screen: 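Mouse-designed siRNAs used to find CHO productivity engineering targets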 (primary screen)
- Cell system: Chinese hamster CHO-K1 ovary cells with stable secreted eGFP expression
- Knock-down reagent: single siRNA against mouse genes, 0.8 pmol siRNA per well (2 µl of 400 nM stock)
- Timing: 3 days
- Measured: 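Percent of the per-plate non-targeting control median for intracellular GFP per well by laser scanning cytometry and for cell viability by ATP luminescence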
- Scale: GFP, % of control: higher = more GFP per well, higher productivity; viability (ATP), % of control: higher = more viable cells (more ATP)
- Hit rule: 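Called active when intracellular GFP, relative to negative control, is at or above 120%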

| target gene | siRNA no. | GFP, % of control | viability (ATP), % of control | activity call |
| --- | --- | --- | --- | --- |
| Or4f14b | 1 | 103 | 96.7 | inactive |
| Or4f14b | 2 | 62.6 | 57.2 | inactive |
| Or4f14b | 3 | 97.6 | 83.9 | inactive |
| Eef1akmt1 | 1 | 56.8 | 55.5 | inactive |
| Eef1akmt1 | 2 | 18.5 | 78.7 | inactive |
| Eef1akmt1 | 3 | 61.8 | 48.1 | inactive |
| Svopl | 1 | 70.1 | 63.2 | inactive |
| Svopl | 2 | 86.4 | 111 | inactive |
| Svopl | 3 | 59 | 94.6 | inactive |
| Dsg1c | 1 | 61.5 | 47.6 | inactive |
| Dsg1c | 2 | 68.9 | 89.4 | inactive |
| Dsg1c | 3 | 50.8 | 44.3 | inactive |
| Fgf13 | 1 | 54.7 | 58.1 | inactive |
| Fgf13 | 2 | 73.4 | 82 | inactive |
| Fgf13 | 3 | 50.4 | 76.1 | inactive |
| Tectb | 1 | 154 | 70.5 | active |
| Tectb | 2 | 84.8 | 113 | inactive |
| Tectb | 3 | 70.9 | 91.3 | inactive |
| Ccl17 | 1 | 81 | 108 | inactive |
| Ccl17 | 2 | 77 | 85.6 | inactive |
| Cyb5a | 1 | 19.8 | 12.9 | inactive |
| Cyb5a | 2 | 52.7 | 79.5 | inactive |
| Cyb5a | 3 | 49.9 | 51.9 | inactive |

Records above whose gene name starts with F or f:
| target gene | siRNA no. | GFP, % of control | viability (ATP), % of control | activity call |
| --- | --- | --- | --- | --- |
| Fgf13 | 1 | 54.7 | 58.1 | inactive |
| Fgf13 | 2 | 73.4 | 82 | inactive |
| Fgf13 | 3 | 50.4 | 76.1 | inactive |

The listing continues.
| target gene | siRNA no. | GFP, % of control | viability (ATP), % of control | activity call |
| --- | --- | --- | --- | --- |
| Mis18bp1 | 1 | 82 | 106 | inactive |
| Mis18bp1 | 2 | 66.8 | 89.2 | inactive |
| Mis18bp1 | 3 | 87.3 | 105 | inactive |
| Sptssb | 1 | 64.9 | 63.6 | inactive |
| Sptssb | 2 | 63.1 | 66.3 | inactive |
| Sptssb | 3 | 69 | 39.5 | inactive |
| Acnat2 | 1 | 76.8 | 88.8 | inactive |
| Acnat2 | 2 | 81.3 | 56.3 | inactive |
| Acnat2 | 3 | 115 | 105 | inactive |
| Chit1 | 1 | 89.3 | 97.1 | inactive |
| Chit1 | 2 | 73.5 | 77.4 | inactive |
| Chit1 | 3 | 77.1 | 75.7 | inactive |
